# The supplement of paper PMC7024190
# Where a name gives a salt, the structure may show the parent alone. Some of the results follow. This data set is noisy: repeats of one test often differ as much as different tests do.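 A first-round screen of about ten thousand compounds sought those raising reporter output, using human embryonic kidney cells briefly transfected with a plasmid carrying a Renilla luciferase gene driven by the HSV-TK promoter.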
# System: HEK 293FT
# Assay: log relative Renilla luciferase luminescence (reporter expression vs reference, reference not stated) (log (base not stated)); higher = higher recombinant reporter expression
# Conditions: 10 µM; time after transfection 48 h
row,Compound,log
1,O=C(OCCN1CCOCC1)C1(c2ccccc2)CCCCC1 [PRE-084 hydrochloride],-0.0131
2,COc1ccccc1C1(O)CCN(CCCn2c3ccccc3c3ccccc32)CC1 [NNC 05-2090 hydrochloride],-0.012
3,CN(C)c1ccc(/C=C2/C(=O)Nc3ccccc32)cc1,-0.36
4,CN1CCN2c3ccccc3Cc3ccccc3C2C1 (centres undefined) [Mianserin hydrochloride],-0.0198
5,CCCN(CC1CC1)c1nc(C)nc(Nc2c(Cl)cc(Cl)cc2Cl)c1Cl,0.264
6,COc1cc(OC)c(C(=O)CCCCN2CCC3(CC2)NC(=O)NC3=O)cc1NS(=O)(=O)c1ccc(C(F)(F)F)cc1,-0.0109
7,c1ccc(N2CCN(CCCOc3ccc4c(c3)OCO4)CC2)cc1 [BP 554 maleate],0.0729
8,C=CCN1CCc2cc(O)c(O)cc2C(c2ccccc2)C1 (centres undefined),0.214
9,CCS(=O)(=O)N(C)[C@H]1c2cc(C#N)ccc2OC(C)(C)[C@@H]1O (racemic) [Chromanol 293B],0.0106
10,CC(C)(Sc1ccc(CCN(CCCCC2CCCCC2)C(=O)NC2CCCCC2)cc1)C(=O)O,-0.012
11,c1ccc(N2CCN(Cc3nc4ccccc4[nH]3)CC2)nc1 [ABT 724 trihydrochloride],0.031
12,CC(C)NC[C@H](O)COc1cccc2ccccc12 [(S)-(-)-Propranolol hydrochloride],0.0544
13,O=S(=O)(c1ccccc1)N(CC(F)(F)F)c1ccc(C(O)(C(F)(F)F)C(F)(F)F)cc1,0.0269
14,COc1ccc(CC(=O)NC(/N=C(\NC#N)Nc2cccc3ncccc23)C(C)(C)C)cc1OC (centres undefined),0.03
15,N[C@H](C(=O)O)c1ccc(C(=O)O)c(O)c1 [(S)-4-Carboxy-3-hydroxyphenylglycine],-0.00108
16,COc1cc(C(=O)OCCCN2CCCN(CCCOC(=O)c3cc(OC)c(OC)c(OC)c3)CC2)cc(OC)c1OC [Dilazep dihydrochloride],0.144
17,CNC(=C[N+](=O)[O-])NCCSCc1ccc(CN(C)C)o1 [Ranitidine hydrochloride],0.103
18,CC1CCN(CC[C@H]2CCCN2S(=O)(=O)c2cccc(O)c2)CC1,0.215
19,CCOC(=O)c1ncn2c1CN(C)C(=O)c1cc(F)ccc1-2 [Flumazenil],-0.03
20,"c1ccc(CN2CCC3(CCc4ccccc43)CC2)cc1 [L-693,403 maleate]",0.114

# Reformatted: entries from further up
row	Compound	log
11	c1ccc(N2CCN(Cc3nc4ccccc4[nH]3)CC2)nc1 [ABT 724 trihydrochloride]	0.031
12	CC(C)NC[C@H](O)COc1cccc2ccccc12 [(S)-(-)-Propranolol hydrochloride]	0.0544
13	O=S(=O)(c1ccccc1)N(CC(F)(F)F)c1ccc(C(O)(C(F)(F)F)C(F)(F)F)cc1	0.0269

# The results go on:

row,Compound,log
1,CN1c2cc3c(cc2N=C(c2ccc(C(=O)O)cc2)c2ccccc21)C(C)(C)CCC3(C)C,-0.0837
2,CN1CCN(C(=O)c2nc3ccc(Cl)cc3[nH]2)CC1,-0.012
3,COC(=O)[C@@H]1CC2=CC(=O)CC[C@]2(C)[C@@]23O[C@@H]2C[C@@]2(C)[C@@H](CC[C@@]24CCC(=O)O4)[C@H]13 [Eplerenone],-0.0681
4,COc1ccc2[nH]c(C(=O)c3ccccc3)cc2c1,0.0569
5,COc1ccc(NC(=O)c2cc(OCCCN(C)C)nn2Cc2ccccc2)cc1 [CFM 1571 hydrochloride],-0.545
6,O=[N+]([O-])c1cccc2c[nH]nc12,-0.0785
7,CC(C)NCC(O)COc1cccc2ccccc12 (centres undefined) [Propranolol hydrochloride],0.0219
8,CN(CC[C@@H](Oc1ccc(-c2ccccc2)cc1)c1ccc(F)cc1)CC(=O)O [ALX 5407 hydrochloride],0.0748
9,Clc1ccc2nsnc2c1NC1=NCCN1 [Tizanidine hydrochloride],-0.118
10,Cc1ccc([N+](=O)[O-])cc1S(=O)(=O)N(C)C,0.026
11,CCCCCCCCCCC(C)(C)C(=O)Nc1c(OC)cc(OC)cc1OC,0.0591
12,c1ccc2sc(N3CCN(Cc4ccc5c(c4)OCO5)CC3)nc2c1 [2-[1-(4-Piperonyl)piperazinyl]benzothiazole],-0.0265
13,Cc1[nH]c(/C=C2\C(=O)Nc3ccccc32)c(C)c1CCC(=O)O,0.0174
14,"COC(=O)/C=C/c1cc(O)ccc1O [Methyl 2,5-dihydroxycinnamate]",0.0544
15,c1ccc(C(NCc2cccnc2)(c2ccccc2)c2ccccc2)cc1,0.0222
16,CCCCNc1c(C(=O)OCC)c(C)nc2c1cnn2CC [Tracazolate hydrochloride],0.0127
17,O=C(O)C1=CCNCC1 [Isoguvacine hydrochloride],-0.648
18,CC(C)[C@H]1c2ccc(F)cc2CC[C@@]1(CCN(C)CCCc1nc2ccccc2[nH]1)OC(=O)C1CC1 [NNC 55-0396 dihydrochloride],-0.456
19,O=C(NCC1CCCCN1)c1cc(OCC(F)(F)F)ccc1OCC(F)(F)F (centres undefined) [Flecainide acetate],-0.0275
